Experimental data from PMC4357442.
These are yes or no findings as the source states them, for the method shown. Binding seen in cells or lysates may run through a third protein. Some results given as binding are weak or reduced against the parent protein; the word gives no strength. Sequences can lack the tags named with a protein.

T1: Mms21-3HA (S. cerevisiae (budding yeast)) (UniProt P38632)
T1 sequence: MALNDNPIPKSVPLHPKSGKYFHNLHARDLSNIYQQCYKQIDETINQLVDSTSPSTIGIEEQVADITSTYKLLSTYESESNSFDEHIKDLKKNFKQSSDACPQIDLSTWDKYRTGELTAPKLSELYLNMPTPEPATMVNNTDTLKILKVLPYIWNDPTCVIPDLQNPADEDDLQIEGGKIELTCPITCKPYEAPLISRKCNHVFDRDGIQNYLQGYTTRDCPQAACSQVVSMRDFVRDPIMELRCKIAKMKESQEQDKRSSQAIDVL

T2: Smc5-6Flag (S. cerevisiae (budding yeast)) (UniProt Q08204)
T2 sequence: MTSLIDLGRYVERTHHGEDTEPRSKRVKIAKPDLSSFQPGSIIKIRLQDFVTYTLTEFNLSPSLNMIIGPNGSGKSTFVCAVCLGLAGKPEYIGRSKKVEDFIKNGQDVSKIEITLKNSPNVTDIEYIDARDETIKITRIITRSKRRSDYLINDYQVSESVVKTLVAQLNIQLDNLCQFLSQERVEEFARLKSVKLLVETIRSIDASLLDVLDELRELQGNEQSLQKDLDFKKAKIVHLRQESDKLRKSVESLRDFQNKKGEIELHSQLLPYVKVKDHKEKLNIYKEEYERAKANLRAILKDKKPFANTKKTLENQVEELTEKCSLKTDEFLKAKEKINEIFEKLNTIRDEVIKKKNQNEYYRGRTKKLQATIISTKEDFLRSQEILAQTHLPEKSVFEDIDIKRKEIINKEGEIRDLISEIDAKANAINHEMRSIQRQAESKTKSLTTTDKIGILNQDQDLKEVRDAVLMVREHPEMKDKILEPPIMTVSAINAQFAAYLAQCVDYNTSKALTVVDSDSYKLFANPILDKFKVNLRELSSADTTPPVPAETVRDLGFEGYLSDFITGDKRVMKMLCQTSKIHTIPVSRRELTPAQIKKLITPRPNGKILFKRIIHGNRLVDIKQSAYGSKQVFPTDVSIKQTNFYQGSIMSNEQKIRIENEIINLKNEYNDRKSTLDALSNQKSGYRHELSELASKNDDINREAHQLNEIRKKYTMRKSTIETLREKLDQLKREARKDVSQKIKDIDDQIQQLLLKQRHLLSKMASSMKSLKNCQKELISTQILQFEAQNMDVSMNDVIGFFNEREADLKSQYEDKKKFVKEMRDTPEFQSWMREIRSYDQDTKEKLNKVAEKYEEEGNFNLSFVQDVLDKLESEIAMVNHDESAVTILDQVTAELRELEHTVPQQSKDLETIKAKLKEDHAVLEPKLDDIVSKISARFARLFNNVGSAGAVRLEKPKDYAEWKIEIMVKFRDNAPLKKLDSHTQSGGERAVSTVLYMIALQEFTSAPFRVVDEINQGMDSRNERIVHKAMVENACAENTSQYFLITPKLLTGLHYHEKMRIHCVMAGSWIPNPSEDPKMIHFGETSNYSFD


What was measured:
[1] = target: T1, Mms21-3HA (S. cerevisiae (budding yeast)); assay: co-IP; Mms21-3HA immunoprecipitated from exponentially growing cells transformed with SMC5-expressing centromeric plasmids
[2] = target: T2, Smc5-6Flag (S. cerevisiae (budding yeast)); assay: co-IP; Smc5-6Flag immunoprecipitation (anti-FLAG M2 gel) from wild type, nse3-2 or nse5-2 cells kept at 25°C or shifted to 37°C for 2 h; western blot of 9myc-tagged Nse proteins or Mms21-6HA

Binder | binding [1] | binding [2]
smc5(K75I)-9myc (protein, UniProt Q08204 1-1093) MTSLIDLGRYVERTHHGEDTEPRSKRVKIAKPDLSSFQPGSIIKIRLQDFVTYTLTEFNLSPSLNMIIGPNGSGISTFVCAVCLGLAGKPEYIGRSKKVEDFIKNGQDVSKIEITLKNSPNVTDIEYIDARDETIKITRIITRSKRRSDYLINDYQVSESVVKTLVAQLNIQLDNLCQFLSQERVEEFARLKSVKLLVETIRSIDASLLDVLDELRELQGNEQSLQKDLDFKKAKIVHLRQESDKLRKSVESLRDFQNKKGEIELHSQLLPYVKVKDHKEKLNIYKEEYERAKANLRAILKDKKPFANTKKTLENQVEELTEKCSLKTDEFLKAKEKINEIFEKLNTIRDEVIKKKNQNEYYRGRTKKLQATIISTKEDFLRSQEILAQTHLPEKSVFEDIDIKRKEIINKEGEIRDLISEIDAKANAINHEMRSIQRQAESKTKSLTTTDKIGILNQDQDLKEVRDAVLMVREHPEMKDKILEPPIMTVSAINAQFAAYLAQCVDYNTSKALTVVDSDSYKLFANPILDKFKVNLRELSSADTTPPVPAETVRDLGFEGYLSDFITGDKRVMKMLCQTSKIHTIPVSRRELTPAQIKKLITPRPNGKILFKRIIHGNRLVDIKQSAYGSKQVFPTDVSIKQTNFYQGSIMSNEQKIRIENEIINLKNEYNDRKSTLDALSNQKSGYRHELSELASKNDDINREAHQLNEIRKKYTMRKSTIETLREKLDQLKREARKDVSQKIKDIDDQIQQLLLKQRHLLSKMASSMKSLKNCQKELISTQILQFEAQNMDVSMNDVIGFFNEREADLKSQYEDKKKFVKEMRDTPEFQSWMREIRSYDQDTKEKLNKVAEKYEEEGNFNLSFVQDVLDKLESEIAMVNHDESAVTILDQVTAELRELEHTVPQQSKDLETIKAKLKEDHAVLEPKLDDIVSKISARFARLFNNVGSAGAVRLEKPKDYAEWKIEIMVKFRDNAPLKKLDSHTQSGGERAVSTVLYMIALQEFTSAPFRVVDEINQGMDSRNERIVHKAMVENACAENTSQYFLITPKLLTGLHYHEKMRIHCVMAGSWIPNPSEDPKMIHFGETSNYSFD | binds | 
smc5(D1014A)-9myc (protein, UniProt Q08204 1-1093) MTSLIDLGRYVERTHHGEDTEPRSKRVKIAKPDLSSFQPGSIIKIRLQDFVTYTLTEFNLSPSLNMIIGPNGSGKSTFVCAVCLGLAGKPEYIGRSKKVEDFIKNGQDVSKIEITLKNSPNVTDIEYIDARDETIKITRIITRSKRRSDYLINDYQVSESVVKTLVAQLNIQLDNLCQFLSQERVEEFARLKSVKLLVETIRSIDASLLDVLDELRELQGNEQSLQKDLDFKKAKIVHLRQESDKLRKSVESLRDFQNKKGEIELHSQLLPYVKVKDHKEKLNIYKEEYERAKANLRAILKDKKPFANTKKTLENQVEELTEKCSLKTDEFLKAKEKINEIFEKLNTIRDEVIKKKNQNEYYRGRTKKLQATIISTKEDFLRSQEILAQTHLPEKSVFEDIDIKRKEIINKEGEIRDLISEIDAKANAINHEMRSIQRQAESKTKSLTTTDKIGILNQDQDLKEVRDAVLMVREHPEMKDKILEPPIMTVSAINAQFAAYLAQCVDYNTSKALTVVDSDSYKLFANPILDKFKVNLRELSSADTTPPVPAETVRDLGFEGYLSDFITGDKRVMKMLCQTSKIHTIPVSRRELTPAQIKKLITPRPNGKILFKRIIHGNRLVDIKQSAYGSKQVFPTDVSIKQTNFYQGSIMSNEQKIRIENEIINLKNEYNDRKSTLDALSNQKSGYRHELSELASKNDDINREAHQLNEIRKKYTMRKSTIETLREKLDQLKREARKDVSQKIKDIDDQIQQLLLKQRHLLSKMASSMKSLKNCQKELISTQILQFEAQNMDVSMNDVIGFFNEREADLKSQYEDKKKFVKEMRDTPEFQSWMREIRSYDQDTKEKLNKVAEKYEEEGNFNLSFVQDVLDKLESEIAMVNHDESAVTILDQVTAELRELEHTVPQQSKDLETIKAKLKEDHAVLEPKLDDIVSKISARFARLFNNVGSAGAVRLEKPKDYAEWKIEIMVKFRDNAPLKKLDSHTQSGGERAVSTVLYMIALQEFTSAPFRVVAEINQGMDSRNERIVHKAMVENACAENTSQYFLITPKLLTGLHYHEKMRIHCVMAGSWIPNPSEDPKMIHFGETSNYSFD | binds | 
Nse3-9myc (wild type) (protein, UniProt Q05541 1-303) MSSIDNDSDVDLTEDLAVAKIVKENPVARKMVRYILSRGESQNSIITRNKLQSVIHEAAREENIAKPSFSKMFMDINAILYNVYGFELQGLPSKNNMNAGGNGSNSNTNKSMPEPLGHRAQKFILLNNVPHSKNFDDFKILQSAHTYEELIVTGEYIGDDIASGTSNTLESKLSTDRDLVYKGVLSVILCIVFFSKNNILHQELIKFLETFGIPSDGSKIAILNITIEDLIKSLEKREYIVRLEEKSDTDGEVISYRIGRRTQAELGLESLEKLVQEIMGLEKEQTKSLHDDIIKSIGDSYSI |  | binds
